Test results published in PubChem BioAssay AID504444 (National Center for Advancing Translational Sciences (NCATS), 2011).
Screen size: about 360,000 compounds; about 7,500 (2.1%) were called active. This list was built around the results that the source calls inconclusive (neither active nor inactive); the mix of calls is not that of the screen. Calls follow the shape of the dose curve; as a rule, active = well fitted inhibition curve with a large enough effect; inconclusive = small, poorly fitted or top-dose-only effect, or effect the other way; inactive = flat fitted curve, though single readings scatter. Potencies beside an inconclusive call are fits to weak or partial responses and may not hold up.

Assay: Nrf2 qHTS screen for inhibitors; also: nearly all actives have a fitted effect of over 60% in size
Details: A549 ARE-Fluc reporter, luciferase luminescence, 18-24 h; activity change, negative = inhibition: at 46 µM (top of the series)
How it was run: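 Nrf2 function is reported as luminescence of an ARE-controlled luciferase in A549 cells. Compounds were tested at several concentrations, and a CellTiter-Fluor read on the same wells flagged cytotoxicity.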
% is scaled to controls: 0 for no effect and ±100 for the full control effect; potency is read from the fitted curve at half-maximal effect.

| Compound | Potency | activity change, negative = inhibition |
| --- | --- | --- |
| O=C(C1CCCC1)N1CCN=C1SCc1cccc([N+](=O)[O-])c1 | inconclusive: 23.1 µM [falling, partial curve] | – |
| CCCCN(C(=O)c1cc(S(=O)(=O)N2CCCCCC2)ccc1OC)c1ccccc1 | inconclusive: 23.1 µM [falling, single point] | – |
| CCc1nn2c(-c3ccco3)ccnc2c1-c1ccc(F)cc1 | inconclusive: 8.2 µM [activator, partial curve] | – |
| CN(CCO)c1cc(N2CCC3(CC2)OCCO3)c2nonc2c1[N+](=O)[O-] | – | inactive: -4.09% |
| Cc1ccn2cc(-c3nonc3C)cc2c1 | inconclusive: 14.6 µM [activator, partial curve, poor fit] | – |
| CCCCC1(C)Cc2ccccc2C(=S)N1 (stereo not drawn) | – | inactive: -13% |
| COc1ccc(-c2n[nH]c3c2C(c2ccc(Cl)cc2Cl)NC3=O)cc1 (stereo not drawn) | inconclusive: 16.4 µM [falling, partial curve] | – |
| CC1CCN(C(=S)c2cn(Cc3ccc(F)cc3)c3ccccc23)CC1 | inconclusive: 29.1 µM [falling, single point] | – |
| CC(=O)Nc1ccc(S(=O)(=O)N2CCN(c3cc4c(cc3[N+](=O)[O-])n(C)c(=O)n4C)CC2)cc1 | active: 16.4 µM | – |
| COc1ccc(-n2c(=O)c3c(c4cc(OC)ccc4n3C)n(CC(=O)NCC3CCCO3)c2=O)cc1 (stereo not drawn) | inconclusive: 29.1 µM [activator, single point] | – |
| NS(=O)(=O)c1ccc(CCNC(=O)CN2CCN(c3cccc(Cl)c3)CC2)cc1 | inconclusive: 16.4 µM [falling, single point] | – |
| COc1ccc(C2c3c(-c4ccccc4O)n[nH]c3C(=O)N2Cc2ccco2)cc1OC (stereo not drawn) | – | inactive: 1.94% |
| COc1ccc(NC(=O)Cn2c(=O)n(-c3cccc(C)c3)c(=O)c3c2c2cc(C)ccc2n3C)cc1OC | – | inactive: -12.8% [at 9.27 µM] |
| CCOc1cccc(C(=O)Nc2ccc3oc(-c4ccc(C(C)(C)C)cc4)nc3c2)c1 | inconclusive: 5.8 µM [falling, partial curve] | – |
| CC1CCCN(C(=S)Nc2ccc(Nc3ccccc3)cc2)C1 (stereo not drawn) | inconclusive: 18.4 µM [falling, single point] | – |
| O=C(/C=C/Nc1ccc(F)cc1F)c1ccc(Br)cc1 | inconclusive: 1.84 µM [activator, full curve] | – |
| CCOC(=O)CCc1c(C(=O)OCC)[nH]c(CC)c1C(=O)OCc1ccccc1 | inconclusive: 18.4 µM [falling, single point] | – |
| COc1ccc(CN(C(=O)c2nsc(Cl)c2Cl)C(C(=O)NC2CCCC2)c2ccc(C)cc2)cc1 (stereo not drawn) | inconclusive: 29.1 µM [falling, single point] | – |

Laid out differently: entries from further up.
Compound	Potency	activity change, negative = inhibition
CC1CCN(C(=S)c2cn(Cc3ccc(F)cc3)c3ccccc23)CC1	inconclusive: 29.1 µM [falling, single point]	–
CC(=O)Nc1ccc(S(=O)(=O)N2CCN(c3cc4c(cc3[N+](=O)[O-])n(C)c(=O)n4C)CC2)cc1	active: 16.4 µM	–
